# Test results reported in the supplement of paper PMC10849652.
# Sequences of proteins named here, by UniProt entry; tags and fusion partners are left off. A change or cut given only in a name is not applied to a line headed by its entry.
# UniProt Q2M2Z5: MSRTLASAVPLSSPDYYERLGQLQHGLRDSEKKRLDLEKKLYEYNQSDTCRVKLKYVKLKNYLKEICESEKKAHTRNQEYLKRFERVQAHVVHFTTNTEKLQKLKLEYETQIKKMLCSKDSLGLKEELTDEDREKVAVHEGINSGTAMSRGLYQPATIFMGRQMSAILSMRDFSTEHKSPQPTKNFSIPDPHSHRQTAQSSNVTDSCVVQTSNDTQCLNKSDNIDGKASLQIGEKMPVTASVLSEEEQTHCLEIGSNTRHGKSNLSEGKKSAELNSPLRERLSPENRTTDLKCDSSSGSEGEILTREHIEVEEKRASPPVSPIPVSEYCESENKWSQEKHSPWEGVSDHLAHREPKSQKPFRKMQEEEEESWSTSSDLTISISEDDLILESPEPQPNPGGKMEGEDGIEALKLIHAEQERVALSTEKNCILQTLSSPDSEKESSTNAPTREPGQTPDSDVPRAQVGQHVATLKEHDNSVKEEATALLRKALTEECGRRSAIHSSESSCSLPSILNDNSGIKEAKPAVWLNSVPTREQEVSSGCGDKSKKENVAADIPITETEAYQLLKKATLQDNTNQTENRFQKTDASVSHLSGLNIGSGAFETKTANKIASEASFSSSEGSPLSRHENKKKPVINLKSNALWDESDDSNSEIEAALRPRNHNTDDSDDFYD
# UniProt Q14657: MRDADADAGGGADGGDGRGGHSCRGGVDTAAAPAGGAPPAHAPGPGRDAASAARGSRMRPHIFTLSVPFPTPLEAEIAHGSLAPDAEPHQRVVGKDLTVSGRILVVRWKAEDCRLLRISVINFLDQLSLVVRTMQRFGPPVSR
# UniProt P50748: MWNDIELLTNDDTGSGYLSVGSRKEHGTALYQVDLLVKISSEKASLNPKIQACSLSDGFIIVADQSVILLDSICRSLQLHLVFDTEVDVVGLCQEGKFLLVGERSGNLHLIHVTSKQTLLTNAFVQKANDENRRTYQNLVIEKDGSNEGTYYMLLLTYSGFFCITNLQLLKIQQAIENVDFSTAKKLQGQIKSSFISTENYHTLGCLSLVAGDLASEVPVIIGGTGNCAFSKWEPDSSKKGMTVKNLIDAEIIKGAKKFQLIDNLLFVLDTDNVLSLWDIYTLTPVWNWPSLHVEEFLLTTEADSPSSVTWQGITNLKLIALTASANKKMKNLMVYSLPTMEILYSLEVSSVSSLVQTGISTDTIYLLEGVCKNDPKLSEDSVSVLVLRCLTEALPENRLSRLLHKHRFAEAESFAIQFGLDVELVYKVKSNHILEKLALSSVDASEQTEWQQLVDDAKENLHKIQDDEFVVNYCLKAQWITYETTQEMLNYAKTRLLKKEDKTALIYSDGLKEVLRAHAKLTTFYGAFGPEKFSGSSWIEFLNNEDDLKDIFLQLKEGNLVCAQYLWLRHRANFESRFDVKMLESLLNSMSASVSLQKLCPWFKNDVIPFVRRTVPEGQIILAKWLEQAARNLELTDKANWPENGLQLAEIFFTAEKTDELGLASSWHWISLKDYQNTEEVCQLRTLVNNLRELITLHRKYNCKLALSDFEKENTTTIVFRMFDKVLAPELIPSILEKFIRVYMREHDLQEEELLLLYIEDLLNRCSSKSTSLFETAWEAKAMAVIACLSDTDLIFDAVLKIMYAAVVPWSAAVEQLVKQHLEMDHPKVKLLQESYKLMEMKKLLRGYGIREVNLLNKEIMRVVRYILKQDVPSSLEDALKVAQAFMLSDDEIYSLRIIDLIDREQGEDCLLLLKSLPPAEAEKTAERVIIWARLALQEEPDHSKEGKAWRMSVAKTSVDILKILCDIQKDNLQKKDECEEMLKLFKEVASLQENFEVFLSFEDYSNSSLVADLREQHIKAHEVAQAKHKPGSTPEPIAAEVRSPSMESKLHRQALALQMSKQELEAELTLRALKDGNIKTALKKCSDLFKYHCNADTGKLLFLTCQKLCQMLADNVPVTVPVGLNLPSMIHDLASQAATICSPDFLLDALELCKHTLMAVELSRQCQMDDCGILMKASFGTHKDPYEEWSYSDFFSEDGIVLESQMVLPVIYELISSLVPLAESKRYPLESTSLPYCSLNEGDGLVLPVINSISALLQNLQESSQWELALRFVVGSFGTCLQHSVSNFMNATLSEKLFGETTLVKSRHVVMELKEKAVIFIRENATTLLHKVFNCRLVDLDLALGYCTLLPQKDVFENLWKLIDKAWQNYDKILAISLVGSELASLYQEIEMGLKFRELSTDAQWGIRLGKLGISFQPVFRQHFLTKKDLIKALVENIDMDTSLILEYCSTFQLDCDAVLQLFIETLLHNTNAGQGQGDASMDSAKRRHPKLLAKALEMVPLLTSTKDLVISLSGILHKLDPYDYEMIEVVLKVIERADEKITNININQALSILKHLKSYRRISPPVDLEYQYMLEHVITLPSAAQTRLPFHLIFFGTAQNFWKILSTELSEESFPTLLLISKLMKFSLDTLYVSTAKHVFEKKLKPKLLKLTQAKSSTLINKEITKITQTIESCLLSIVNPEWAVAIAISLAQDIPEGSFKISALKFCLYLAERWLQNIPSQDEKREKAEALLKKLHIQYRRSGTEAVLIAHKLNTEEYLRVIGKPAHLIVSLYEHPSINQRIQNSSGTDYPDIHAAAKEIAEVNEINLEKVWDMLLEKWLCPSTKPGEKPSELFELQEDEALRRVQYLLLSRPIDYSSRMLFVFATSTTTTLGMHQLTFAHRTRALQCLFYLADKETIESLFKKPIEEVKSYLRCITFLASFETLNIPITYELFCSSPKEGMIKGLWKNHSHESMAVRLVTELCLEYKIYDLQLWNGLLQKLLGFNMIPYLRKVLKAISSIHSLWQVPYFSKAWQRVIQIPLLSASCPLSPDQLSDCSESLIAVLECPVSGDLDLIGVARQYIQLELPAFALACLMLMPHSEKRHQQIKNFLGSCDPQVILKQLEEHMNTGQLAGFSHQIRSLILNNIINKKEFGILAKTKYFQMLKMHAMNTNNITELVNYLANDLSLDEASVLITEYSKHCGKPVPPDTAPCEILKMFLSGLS
# UniProt Q12840: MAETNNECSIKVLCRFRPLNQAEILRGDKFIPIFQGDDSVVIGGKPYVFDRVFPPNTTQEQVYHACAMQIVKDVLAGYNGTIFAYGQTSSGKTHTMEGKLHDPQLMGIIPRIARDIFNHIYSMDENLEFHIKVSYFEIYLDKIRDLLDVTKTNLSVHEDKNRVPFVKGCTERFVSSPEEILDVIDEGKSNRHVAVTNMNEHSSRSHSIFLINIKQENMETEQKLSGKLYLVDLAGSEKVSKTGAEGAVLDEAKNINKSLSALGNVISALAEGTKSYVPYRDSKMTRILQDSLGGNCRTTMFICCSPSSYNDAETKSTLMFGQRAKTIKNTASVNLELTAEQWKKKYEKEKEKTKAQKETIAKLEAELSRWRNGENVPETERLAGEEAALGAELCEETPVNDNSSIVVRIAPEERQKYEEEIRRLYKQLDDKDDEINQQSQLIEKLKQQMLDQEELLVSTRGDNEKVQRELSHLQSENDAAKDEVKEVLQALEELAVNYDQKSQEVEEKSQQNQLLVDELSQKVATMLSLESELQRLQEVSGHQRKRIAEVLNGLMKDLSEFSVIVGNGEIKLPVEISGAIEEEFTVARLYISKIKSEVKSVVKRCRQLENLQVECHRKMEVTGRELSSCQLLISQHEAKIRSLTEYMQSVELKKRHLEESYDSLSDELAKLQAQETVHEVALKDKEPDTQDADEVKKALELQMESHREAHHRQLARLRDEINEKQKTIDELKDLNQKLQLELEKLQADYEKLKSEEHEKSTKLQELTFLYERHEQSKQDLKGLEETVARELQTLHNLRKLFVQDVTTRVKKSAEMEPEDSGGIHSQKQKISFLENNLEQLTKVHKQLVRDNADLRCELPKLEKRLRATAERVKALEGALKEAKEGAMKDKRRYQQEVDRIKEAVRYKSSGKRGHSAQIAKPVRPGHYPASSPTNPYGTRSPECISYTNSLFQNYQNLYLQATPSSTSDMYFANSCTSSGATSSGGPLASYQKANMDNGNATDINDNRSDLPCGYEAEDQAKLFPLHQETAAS
# UniProt Q9UHA4, whole entry, looked up: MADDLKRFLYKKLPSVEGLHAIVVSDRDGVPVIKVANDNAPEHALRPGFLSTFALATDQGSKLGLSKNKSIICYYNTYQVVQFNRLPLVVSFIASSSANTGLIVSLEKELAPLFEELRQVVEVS
# UniProt Q6PID8: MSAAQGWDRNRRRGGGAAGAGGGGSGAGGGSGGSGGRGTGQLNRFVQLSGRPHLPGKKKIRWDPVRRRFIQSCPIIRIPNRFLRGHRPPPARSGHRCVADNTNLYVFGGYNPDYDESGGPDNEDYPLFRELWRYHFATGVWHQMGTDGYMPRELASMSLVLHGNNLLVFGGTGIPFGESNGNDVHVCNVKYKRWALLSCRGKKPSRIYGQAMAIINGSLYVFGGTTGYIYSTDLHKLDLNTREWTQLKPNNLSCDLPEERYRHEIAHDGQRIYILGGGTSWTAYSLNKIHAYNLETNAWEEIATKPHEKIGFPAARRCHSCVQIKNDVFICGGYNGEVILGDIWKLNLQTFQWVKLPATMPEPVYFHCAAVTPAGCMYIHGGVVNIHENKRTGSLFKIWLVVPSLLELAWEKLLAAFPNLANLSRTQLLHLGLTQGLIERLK
# UniProt Q9ULI4: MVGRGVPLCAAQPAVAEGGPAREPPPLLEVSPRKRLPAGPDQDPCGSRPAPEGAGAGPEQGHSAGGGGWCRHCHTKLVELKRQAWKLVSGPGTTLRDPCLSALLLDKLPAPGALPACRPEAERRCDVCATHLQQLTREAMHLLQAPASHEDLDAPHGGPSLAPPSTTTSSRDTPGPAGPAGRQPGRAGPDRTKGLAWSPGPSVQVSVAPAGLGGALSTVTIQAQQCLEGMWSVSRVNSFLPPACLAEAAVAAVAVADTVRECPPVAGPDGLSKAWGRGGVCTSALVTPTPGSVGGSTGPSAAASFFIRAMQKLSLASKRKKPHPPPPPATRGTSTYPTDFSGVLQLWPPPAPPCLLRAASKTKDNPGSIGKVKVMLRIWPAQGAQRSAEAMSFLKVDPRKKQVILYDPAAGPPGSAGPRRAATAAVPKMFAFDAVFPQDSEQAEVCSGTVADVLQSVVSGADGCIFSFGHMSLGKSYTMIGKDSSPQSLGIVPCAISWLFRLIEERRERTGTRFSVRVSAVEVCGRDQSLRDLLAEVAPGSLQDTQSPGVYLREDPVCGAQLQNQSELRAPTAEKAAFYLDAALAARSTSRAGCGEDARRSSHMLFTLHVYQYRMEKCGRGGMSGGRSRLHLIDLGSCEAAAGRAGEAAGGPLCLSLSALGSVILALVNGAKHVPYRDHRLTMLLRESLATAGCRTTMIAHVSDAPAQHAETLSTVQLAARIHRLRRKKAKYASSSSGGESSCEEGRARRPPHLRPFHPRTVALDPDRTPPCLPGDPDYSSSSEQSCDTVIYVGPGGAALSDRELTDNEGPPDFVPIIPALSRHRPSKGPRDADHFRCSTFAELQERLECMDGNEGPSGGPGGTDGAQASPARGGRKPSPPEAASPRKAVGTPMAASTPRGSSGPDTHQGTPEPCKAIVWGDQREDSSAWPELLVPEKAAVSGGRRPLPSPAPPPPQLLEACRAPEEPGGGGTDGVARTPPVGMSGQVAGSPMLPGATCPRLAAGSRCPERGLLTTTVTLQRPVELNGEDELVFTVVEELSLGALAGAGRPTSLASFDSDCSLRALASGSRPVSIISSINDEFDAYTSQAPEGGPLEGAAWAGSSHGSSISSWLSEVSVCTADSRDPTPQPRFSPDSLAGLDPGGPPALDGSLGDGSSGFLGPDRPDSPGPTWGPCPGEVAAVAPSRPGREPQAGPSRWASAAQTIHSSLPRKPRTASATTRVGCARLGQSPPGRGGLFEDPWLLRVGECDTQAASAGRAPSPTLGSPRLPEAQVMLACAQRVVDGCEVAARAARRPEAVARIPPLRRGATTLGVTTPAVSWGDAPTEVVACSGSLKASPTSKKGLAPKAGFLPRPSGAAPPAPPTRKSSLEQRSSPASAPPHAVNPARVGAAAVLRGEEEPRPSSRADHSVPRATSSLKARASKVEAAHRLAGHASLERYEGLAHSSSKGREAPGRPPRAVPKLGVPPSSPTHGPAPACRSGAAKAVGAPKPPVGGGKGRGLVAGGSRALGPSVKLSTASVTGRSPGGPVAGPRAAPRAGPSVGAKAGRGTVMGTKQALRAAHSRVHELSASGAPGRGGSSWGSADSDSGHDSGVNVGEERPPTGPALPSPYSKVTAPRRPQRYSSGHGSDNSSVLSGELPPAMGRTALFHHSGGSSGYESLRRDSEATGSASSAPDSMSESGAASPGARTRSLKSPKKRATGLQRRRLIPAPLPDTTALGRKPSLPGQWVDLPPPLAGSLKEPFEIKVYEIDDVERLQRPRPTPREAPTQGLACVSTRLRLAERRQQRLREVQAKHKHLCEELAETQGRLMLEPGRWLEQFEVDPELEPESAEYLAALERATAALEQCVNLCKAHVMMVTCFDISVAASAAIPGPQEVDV
# Some of the results follow.
# Key:
# Assay in all cases: log2 fold change, soluble protein after heating vs DMSO (PISA); higher = thermal stabilisation; K562 lysate, 10 uM; active = over 0.2 and 3.5 SD of the protein, either way, in both replicates (recomputed)
# [1] = compound: NCC(=O)Nc1ccc(-n2nc(C(F)(F)F)cc2-c2ccc3c(ccc4ccccc43)c2)cc1
# Procedure, shortened: (§1)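 Dounce homogenisation of K562 pellets in PBS pH 7.4 with 1 mM MgCl2 produced a crude extract, used at 1 mg/mL protein. Exposure to 10 μM compound lasted 30 min, and aliquots were then heated for 3 min across 48°C-58°C, pooled and brought to 0.5% NP-40 at 4°C. The supernatant after 21,000xg for 90 min was quantified by TMTpro 16plex LC-MS/MS with channel sums equalised. Duplicate values are given as log-two fold change in thermal stability relative to solvent controls.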
# vorinostat = compound: O=C(CCCCCCC(=O)Nc1ccccc1)NO [vorinostat]
# Procedure, shortened: as §1
# silmitasertib = compound: O=C(O)c1ccc2c(c1)nc(Nc1cccc(Cl)c1)c1ccncc12 [silmitasertib]
# Procedure, shortened: as §1
# [2] = compound: O=C1NC(=O)C(c2cnc3ccccn23)=C1c1cn2c3c(cc(F)cc13)CN(C(=O)N1CCCCC1)CC2
# Procedure, shortened: as §1
# entospletinib = compound: c1cn2cc(-c3ccc4cn[nH]c4c3)nc(Nc3ccc(N4CCOCC4)cc3)c2n1 [entospletinib]
# Procedure, shortened: as §1
Target,log2 fold change [1],log2 fold change (vorinostat),log2 fold change (silmitasertib),log2 fold change [2],log2 fold change (entospletinib)
KIAA2013 (UniProt Q8IYS2),inactive: 0.022,inactive: 0.138,inactive: -0.072,inactive: 0.071,inactive: -0.02
KIF2A isoform 4 (UniProt O00139),inactive: -0.018,active: -0.518,inactive: 0.044,inactive: -0.015,inactive: -0.006
KIF3A (UniProt Q9Y496),inactive: 0.076,inactive: -0.094,inactive: 0.036,inactive: 0.137,inactive: -0.044
KHNYN (UniProt O15037),inactive: 0.063,inactive: -0.528,inactive: -0.085,inactive: -0.044,inactive: 0.048
KIFC3 isoform 6 (UniProt Q9BVG8),inactive: 0.03,inactive: -0.025,inactive: -0.124,inactive: 0.119,inactive: -0.063
KIF13B (UniProt Q9NQT8),inactive: -0.009,inactive: -0.265,inactive: 0.019,inactive: -0.081,inactive: -0.02
KMT2C isoform 3 (UniProt Q8NEZ4),inactive: -0.029,inactive: 0.137,inactive: -0.037,inactive: -0.143,inactive: 0.043
KYAT1 (UniProt Q16773),inactive: -0.038,inactive: 0.083,inactive: -0.02,inactive: -0.023,inactive: -0.047
KIF3C (UniProt O14782),active: 1.17,inactive: -0.352,inactive: 0.249,inactive: 0.074,inactive: 0.032
LARS (UniProt Q9P2J5),inactive: -0.021,active: -0.399,inactive: 0.052,inactive: -0.003,inactive: 0.012
KNL1 (UniProt Q8NG31),inactive: 0.022,active: -0.254,inactive: -0.003,inactive: -0.009,inactive: -0.011
KLHL11 (UniProt Q9NVR0),inactive: -0.003,inactive: -0.132,inactive: 0.009,inactive: 0.022,inactive: -0.052
KMT2A isoform 3 (UniProt Q03164),inactive: 0.046,inactive: 0.101,inactive: 0.012,inactive: 0.066,inactive: -0.034
KIZ (UniProt Q2M2Z5),inactive: 0.324,inactive: -0.026,inactive: -0.112,inactive: 0.028,inactive: 0.043
KIFC1 (UniProt Q9BW19),inactive: 0.02,active: -0.898,inactive: 0.03,inactive: -0.04,inactive: -0.002
LAMTOR4 (UniProt Q0VGL1),inactive: 0.027,inactive: 0.08,inactive: -0.022,inactive: -0.033,inactive: 0.02
KHDC4 (UniProt Q7Z7F0),inactive: -0.015,inactive: 0.038,inactive: -0.054,inactive: -0.031,inactive: 0.013
LAGE3 (UniProt Q14657),inactive: 0.045,inactive: -0.085,inactive: -0.016,inactive: -0.041,inactive: -0.043
KNTC1 (UniProt P50748),inactive: 0.001,inactive: -0.225,inactive: 0.029,inactive: -0.022,inactive: 0.03
KIF5A (UniProt Q12840),inactive: -0.007,inactive: -0.132,inactive: 0.033,inactive: -0.013,inactive: 0.022
LAMTOR3 (UniProt Q9UHA4),inactive: 0.035,inactive: 0.123,inactive: -0.004,inactive: 0.009,inactive: -0.008
KRBA1 (UniProt A5PL33),inactive: -0.036,inactive: -0.396,inactive: 0.032,inactive: -0.282,inactive: 0.061
KLHDC10 (UniProt Q6PID8),inactive: -0.008,inactive: -0.077,inactive: -0.146,inactive: -0.014,inactive: 0.108
KIF26A (UniProt Q9ULI4),inactive: -0.01,inactive: -0.178,inactive: 0.068,inactive: -0.016,inactive: 0.057
KLC1 isoform 6 (UniProt Q07866),inactive: 0.024,active: -0.231,inactive: -0.004,inactive: -0.034,inactive: 0.013
KHSRP (UniProt Q92945),inactive: -0.016,inactive: 0.028,inactive: -0.003,inactive: -0.01,inactive: 0.015
KDM5C (UniProt P41229),inactive: 0.039,active: -0.282,inactive: 0.015,inactive: 0,inactive: 0.003

# Quoted from the listing:
# log2 fold change (entospletinib), KIFC3 isoform 6 (UniProt Q9BVG8) reads inactive: -0.063
# log2 fold change (entospletinib), KIAA2013 (UniProt Q8IYS2) reads inactive: -0.02
